We go through four substances from PMC12563870.

Protein sequences, listed by entry. Tags and fused reporters are not part of them. Residues count along the entry.
UniProt Q9NZQ7, residues 19-290: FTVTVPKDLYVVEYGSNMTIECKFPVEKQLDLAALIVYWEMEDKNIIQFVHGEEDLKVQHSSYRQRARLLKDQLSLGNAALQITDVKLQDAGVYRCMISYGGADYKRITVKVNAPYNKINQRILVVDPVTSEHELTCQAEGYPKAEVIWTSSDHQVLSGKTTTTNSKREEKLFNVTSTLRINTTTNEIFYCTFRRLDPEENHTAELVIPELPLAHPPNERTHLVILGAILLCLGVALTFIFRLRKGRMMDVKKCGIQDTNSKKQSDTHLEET
UniProt Q9UKV5: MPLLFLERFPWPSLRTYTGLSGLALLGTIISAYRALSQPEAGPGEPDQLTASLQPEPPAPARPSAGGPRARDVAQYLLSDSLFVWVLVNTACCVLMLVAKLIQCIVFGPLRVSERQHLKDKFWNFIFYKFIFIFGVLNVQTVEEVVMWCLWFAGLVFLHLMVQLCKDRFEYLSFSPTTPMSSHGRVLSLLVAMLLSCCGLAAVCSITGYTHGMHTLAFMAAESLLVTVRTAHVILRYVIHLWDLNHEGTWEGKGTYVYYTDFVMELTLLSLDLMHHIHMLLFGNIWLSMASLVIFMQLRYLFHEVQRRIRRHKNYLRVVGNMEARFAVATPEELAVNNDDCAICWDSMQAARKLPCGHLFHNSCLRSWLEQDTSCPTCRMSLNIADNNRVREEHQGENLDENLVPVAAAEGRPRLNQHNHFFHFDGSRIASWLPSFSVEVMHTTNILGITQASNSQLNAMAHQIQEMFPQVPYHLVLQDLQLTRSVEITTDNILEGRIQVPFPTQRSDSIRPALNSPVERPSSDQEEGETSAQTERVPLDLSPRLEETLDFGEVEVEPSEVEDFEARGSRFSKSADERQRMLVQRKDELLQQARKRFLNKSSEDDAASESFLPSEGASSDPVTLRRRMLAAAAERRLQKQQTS

For assay [1], the target named is PD-L1-FLAG (Programmed cell death ligand 1) (human) (UniProt Q9NZQ7). Description: co-IP; 293T cells cotransfected with PD-L1-FLAG and GP78-V5; 1X NP-40 lysis buffer, 500 ug lysate; IP with mouse V5 antibody on protein A/G agarose (GP78) or with M2 FLAG affinity gel (PD-L1); Western blot with anti-V5 and anti-FLAG.
Assay [2] deals with GP78-V5 (full-length human GP78, E3 ubiquitin ligase) (human) (UniProt Q9UKV5). Described as above.
Assay [3] addresses GP78 in MDA231 cells (human) (UniProt Q9UKV5). Description: co-IP; MDA231 cells; told only as similar results to the reciprocal co-IP in 293T cells; no figure named.
Assay [4] has as its target PD-L1 in MDA231 cells (human) (UniProt Q9NZQ7). The description is as above.

Results are given in words; binding and its absence hold for the method and conditions named. Binding seen in cells or lysates may run through a third protein. Some entries that bind do so weakly or less than the wild type.

As to “GP78-V5 (full-length human GP78, E3 ubiquitin ligase) (from UniProt Q9UKV5 1-643) (enzyme)”, the binding result in assay [1] is “binds”. As for “PD-L1-FLAG (Programmed cell death ligand 1) (from UniProt Q9NZQ7 19-290)”, the binding entry in assay [2] was “binds”. “PD-L1 in MDA231 cells (from UniProt Q9NZQ7 19-290) (ligand)”: the binding entry in assay [3] is recorded as “binds”. In the case of “GP78 in MDA231 cells (from UniProt Q9UKV5 1-643) (enzyme)”, the binding result in assay [4] was “binds”.
